Reference: publication PMC8483321

Protein sequences, listed by entry. Tags and fused reporters are not part of them. Lines headed by an entry give the natural chain unless they say otherwise; changes in a name come on top. Chains listed by the source or under a name are the forms on record and can include a tag or linker.
UniProt Q92560: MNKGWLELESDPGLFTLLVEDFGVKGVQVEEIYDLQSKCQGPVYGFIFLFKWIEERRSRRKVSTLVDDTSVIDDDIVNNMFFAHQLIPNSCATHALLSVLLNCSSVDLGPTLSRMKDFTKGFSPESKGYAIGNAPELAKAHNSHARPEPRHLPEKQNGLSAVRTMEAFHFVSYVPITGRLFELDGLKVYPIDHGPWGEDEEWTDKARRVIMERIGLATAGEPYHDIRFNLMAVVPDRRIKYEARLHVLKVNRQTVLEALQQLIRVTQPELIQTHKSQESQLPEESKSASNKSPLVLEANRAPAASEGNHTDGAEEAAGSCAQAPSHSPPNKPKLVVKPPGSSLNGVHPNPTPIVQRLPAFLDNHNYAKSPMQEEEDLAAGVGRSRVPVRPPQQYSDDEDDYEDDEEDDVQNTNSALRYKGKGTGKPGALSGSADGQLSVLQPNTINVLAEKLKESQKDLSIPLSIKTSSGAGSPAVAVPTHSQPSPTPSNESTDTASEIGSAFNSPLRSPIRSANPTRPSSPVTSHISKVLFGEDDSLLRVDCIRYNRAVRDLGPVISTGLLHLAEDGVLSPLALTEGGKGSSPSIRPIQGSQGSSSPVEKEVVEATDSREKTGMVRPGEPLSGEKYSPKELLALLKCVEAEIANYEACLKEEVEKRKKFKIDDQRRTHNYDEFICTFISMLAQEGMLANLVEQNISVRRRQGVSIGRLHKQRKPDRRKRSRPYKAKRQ
GFP-BAP1 Δ671–710 (Q92560, form named): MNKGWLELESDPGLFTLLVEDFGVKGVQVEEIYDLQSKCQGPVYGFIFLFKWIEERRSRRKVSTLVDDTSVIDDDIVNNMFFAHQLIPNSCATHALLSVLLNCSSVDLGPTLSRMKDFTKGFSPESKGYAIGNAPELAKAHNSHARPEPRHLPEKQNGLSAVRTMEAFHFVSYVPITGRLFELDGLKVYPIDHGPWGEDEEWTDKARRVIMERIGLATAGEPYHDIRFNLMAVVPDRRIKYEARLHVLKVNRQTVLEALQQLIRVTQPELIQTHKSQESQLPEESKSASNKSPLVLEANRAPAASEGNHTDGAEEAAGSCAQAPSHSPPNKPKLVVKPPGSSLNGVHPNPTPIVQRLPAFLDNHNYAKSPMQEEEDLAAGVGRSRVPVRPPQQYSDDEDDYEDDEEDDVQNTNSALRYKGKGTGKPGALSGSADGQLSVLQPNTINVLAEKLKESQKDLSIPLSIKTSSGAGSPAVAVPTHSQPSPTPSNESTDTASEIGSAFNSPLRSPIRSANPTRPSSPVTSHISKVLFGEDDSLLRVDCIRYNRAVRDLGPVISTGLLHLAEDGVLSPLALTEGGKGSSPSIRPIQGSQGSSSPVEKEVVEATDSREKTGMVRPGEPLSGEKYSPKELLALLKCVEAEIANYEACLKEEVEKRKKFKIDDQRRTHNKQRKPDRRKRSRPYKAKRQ

Columns and labels:
[1] = target: (N)GFP-FLAG-BAP1 fusion protein (BRCA1-associated protein 1, full-length) (UniProt Q92560); experiment: affinity purification with mass spectrometry; GFP-Trap agarose beads, 20 min at 4°C with ethidium bromide, washes in C300 buffer; cytoplasmic extracts of HeLa FRT ΔBAP1 (clone 4D2) lines expressing GFP-BAP1 full-length, 2–670 or Δ671–710; GFP or mock immunoprecipitation
[2] = target: GFP-BAP1 Δ671–710 (UniProt Q92560); experiment: as above
[3] = target: (N)GFP-FLAG-BAP1 fusion protein (BRCA1-associated protein 1, full-length) (UniProt Q92560); experiment: affinity purification with mass spectrometry; GFP-Trap agarose beads, 20 min at 4°C with ethidium bromide, washes in C300 buffer; nuclear extract of HeLa FRT cells (endogenous BAP1 present) induced with doxycycline to express GFP-BAP1; against mock precipitation
[4] = target: (N)GFP-FLAG-BAP1 fusion protein (BRCA1-associated protein 1, full-length) (UniProt Q92560); experiment: affinity purification with mass spectrometry; GFP-Trap agarose beads, 20 min at 4°C with ethidium bromide, washes in C300 buffer; cytoplasmic extract of HeLa FRT cells (endogenous BAP1 present) induced with doxycycline to express GFP-BAP1; against mock precipitation
[5] = target: (N)GFP-FLAG-BAP1 fusion protein (BRCA1-associated protein 1, full-length) (UniProt Q92560); experiment: affinity purification with mass spectrometry; GFP-Trap agarose beads, 20 min at 4°C with ethidium bromide, washes in C300 buffer; nuclear extracts of HeLa FRT ΔBAP1 (clone 4D2) lines expressing GFP-BAP1 full-length, 2–670 or Δ671–710; GFP or mock immunoprecipitation
[6] = target: GFP-BAP1 Δ671–710 (UniProt Q92560); experiment: as above

binding [1]: binds
binding [2]: binds
binding [3]: binds
binding [4]: binds
binding [5]: binds
binding [6]: no binding (only in the nuclear extract)
B1: UBE2O (enzyme, UniProt Q9C0C9 1-1292)
chain: MADPAAPTPAAPAPAQAPAPAPEAVPAPAAAPVPAPAPASDSASGPSSDSGPEAGSQRLLFSHDLVSGRYRGSVHFGLVRLIHGEDSDSEGEEEGRGSSGCSEAGGAGHEEGRASPLRRGYVRVQWYPEGVKQHVKETKLKLEDRSVVPRDVVRHMRSTDSQCGTVIDVNIDCAVKLIGTNCIIYPVNSKDLQHIWPFMYGDYIAYDCWLGKVYDLKNQIILKLSNGARCSMNTEDGAKLYDVCPHVSDSGLFFDDSYGFYPGQVLIGPAKIFSSVQWLSGVKPVLSTKSKFRVVVEEVQVVELKVTWITKSFCPGGTDSVSPPPSVITQENLGRVKRLGCFDHAQRQLGERCLYVFPAKVEPAKIAWECPEKNCAQGEGSMAKKVKRLLKKQVVRIMSCSPDTQCSRDHSMEDPDKKGESKTKSEAESASPEETPDGSASPVEMQDEGAEEPHEAGEQLPPFLLKEGRDDRLHSAEQDADDEAADDTDDTSSVTSSASSTTSSQSGSGTSRKKSIPLSIKNLKRKHKRKKNKITRDFKPGDRVAVEVVTTMTSADVMWQDGSVECNIRSNDLFPVHHLDNNEFCPGDFVVDKRVQSCPDPAVYGVVQSGDHIGRTCMVKWFKLRPSGDDVELIGEEEDVSVYDIADHPDFRFRTTDIVIRIGNTEDGAPHKEDEPSVGQVARVDVSSKVEVVWADNSKTIILPQHLYNIESEIEESDYDSVEGSTSGASSDEWEDDSDSWETDNGLVEDEHPKIEEPPIPPLEQPVAPEDKGVVISEEAATAAVQGAVAMAAPMAGLMEKAGKDGPPKSFRELKEAIKILESLKNMTVEQLLTGSPTSPTVEPEKPTREKKFLDDIKKLQENLKKTLDNVAIVEEEKMEAVPDVERKEDKPEGQSPVKAEWPSETPVLCQQCGGKPGVTFTSAKGEVFSVLEFAPSNHSFKKIEFQPPEAKKFFSTVRKEMALLATSLPEGIMVKTFEDRMDLFSALIKGPTRTPYEDGLYLFDIQLPNIYPAVPPHFCYLSQCSGRLNPNLYDNGKVCVSLLGTWIGKGTERWTSKSSLLQVLISIQGLILVNEPYYNEAGFDSDRGLQEGYENSRCYNEMALIRVVQSMTQLVRRPPEVFEQEIRQHFSTGGWRLVNRIESWLETHALLEKAQALPNGVPKASSSPEPPAVAELSDSGQQEPEDGGPAPGEASQGSDSEGGAQGLASASRDHTDQTSETAPDASVPPSVKPKKRRKSYRSFLPEKSGYPDIGFPLFPLSKGFIKSIRGVLTQFRAALLEAGMPECTEDK

No constants are given. Whether binding was seen depends on the method and setting. Binding seen in cells or lysates may run through a third protein. These calls come from enrichment with a bait or labelling near it, and not all partners need be listed. For part of these data: A no says only that the protein was not detected with the bait.
